Results taken from the supplement of paper PMC10849652.
The other results are listed elsewhere or left out.

Sequences of proteins named here, by UniProt entry; tags and fusion partners are left off. A change or cut given only in a name is not applied to a line headed by its entry.
UniProt I6L899: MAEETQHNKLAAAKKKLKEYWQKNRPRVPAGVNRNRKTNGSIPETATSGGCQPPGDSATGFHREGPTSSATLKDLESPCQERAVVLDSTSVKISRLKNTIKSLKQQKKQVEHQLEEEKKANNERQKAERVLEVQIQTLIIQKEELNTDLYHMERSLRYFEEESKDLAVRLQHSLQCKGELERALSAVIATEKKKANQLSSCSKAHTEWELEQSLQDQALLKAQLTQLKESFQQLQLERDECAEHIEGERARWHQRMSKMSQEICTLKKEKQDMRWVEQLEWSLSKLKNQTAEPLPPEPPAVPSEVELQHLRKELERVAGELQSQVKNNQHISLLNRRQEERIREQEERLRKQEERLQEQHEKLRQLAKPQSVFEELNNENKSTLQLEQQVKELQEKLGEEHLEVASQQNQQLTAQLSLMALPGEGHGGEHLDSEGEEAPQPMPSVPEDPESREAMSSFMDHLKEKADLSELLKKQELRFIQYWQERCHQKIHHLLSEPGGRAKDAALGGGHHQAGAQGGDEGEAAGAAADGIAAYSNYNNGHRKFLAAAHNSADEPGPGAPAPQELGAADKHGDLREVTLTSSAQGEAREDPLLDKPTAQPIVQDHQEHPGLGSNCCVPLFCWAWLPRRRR
UniProt Q9NZ52: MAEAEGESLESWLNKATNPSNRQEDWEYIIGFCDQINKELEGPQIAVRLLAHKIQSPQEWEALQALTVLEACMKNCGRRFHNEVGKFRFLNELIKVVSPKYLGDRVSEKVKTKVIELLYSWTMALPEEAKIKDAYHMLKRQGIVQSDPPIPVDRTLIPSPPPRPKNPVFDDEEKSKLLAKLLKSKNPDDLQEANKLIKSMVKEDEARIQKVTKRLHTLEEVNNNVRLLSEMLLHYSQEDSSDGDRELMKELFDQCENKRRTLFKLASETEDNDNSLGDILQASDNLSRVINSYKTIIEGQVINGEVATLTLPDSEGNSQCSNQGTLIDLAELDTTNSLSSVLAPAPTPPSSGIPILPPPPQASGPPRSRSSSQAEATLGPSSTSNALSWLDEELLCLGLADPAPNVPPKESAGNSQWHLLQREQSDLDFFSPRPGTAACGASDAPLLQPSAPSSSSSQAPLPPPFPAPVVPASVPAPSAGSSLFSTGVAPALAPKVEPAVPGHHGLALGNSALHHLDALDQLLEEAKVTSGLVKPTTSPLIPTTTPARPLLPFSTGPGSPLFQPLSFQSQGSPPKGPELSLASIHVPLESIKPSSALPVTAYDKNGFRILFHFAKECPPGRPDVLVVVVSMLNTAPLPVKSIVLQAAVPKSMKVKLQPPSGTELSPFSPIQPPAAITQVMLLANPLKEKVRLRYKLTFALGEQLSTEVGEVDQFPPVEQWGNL
UniProt P00367: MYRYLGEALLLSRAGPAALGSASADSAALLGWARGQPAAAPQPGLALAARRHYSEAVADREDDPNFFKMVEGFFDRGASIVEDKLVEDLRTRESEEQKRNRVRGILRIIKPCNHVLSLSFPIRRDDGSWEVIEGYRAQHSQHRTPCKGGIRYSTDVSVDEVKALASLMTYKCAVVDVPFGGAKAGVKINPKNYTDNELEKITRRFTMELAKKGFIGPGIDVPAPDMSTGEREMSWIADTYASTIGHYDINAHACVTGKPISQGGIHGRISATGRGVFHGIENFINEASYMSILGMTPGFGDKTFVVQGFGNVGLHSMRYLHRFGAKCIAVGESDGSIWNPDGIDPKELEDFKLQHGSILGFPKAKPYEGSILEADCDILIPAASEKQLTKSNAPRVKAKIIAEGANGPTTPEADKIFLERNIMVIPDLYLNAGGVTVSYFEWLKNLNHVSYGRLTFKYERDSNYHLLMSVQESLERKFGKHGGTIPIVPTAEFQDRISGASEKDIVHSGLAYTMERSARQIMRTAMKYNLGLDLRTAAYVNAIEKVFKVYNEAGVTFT
UniProt Q9H9Y4: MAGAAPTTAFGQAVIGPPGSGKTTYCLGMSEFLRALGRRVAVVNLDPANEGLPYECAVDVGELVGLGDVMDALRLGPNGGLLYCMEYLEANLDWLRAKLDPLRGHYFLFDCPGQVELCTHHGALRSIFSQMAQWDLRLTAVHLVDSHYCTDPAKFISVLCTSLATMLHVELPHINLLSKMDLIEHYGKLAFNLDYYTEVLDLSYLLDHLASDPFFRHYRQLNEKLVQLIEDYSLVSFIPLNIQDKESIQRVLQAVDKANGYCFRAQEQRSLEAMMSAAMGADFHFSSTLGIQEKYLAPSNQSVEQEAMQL
UniProt P63092, whole entry, looked up: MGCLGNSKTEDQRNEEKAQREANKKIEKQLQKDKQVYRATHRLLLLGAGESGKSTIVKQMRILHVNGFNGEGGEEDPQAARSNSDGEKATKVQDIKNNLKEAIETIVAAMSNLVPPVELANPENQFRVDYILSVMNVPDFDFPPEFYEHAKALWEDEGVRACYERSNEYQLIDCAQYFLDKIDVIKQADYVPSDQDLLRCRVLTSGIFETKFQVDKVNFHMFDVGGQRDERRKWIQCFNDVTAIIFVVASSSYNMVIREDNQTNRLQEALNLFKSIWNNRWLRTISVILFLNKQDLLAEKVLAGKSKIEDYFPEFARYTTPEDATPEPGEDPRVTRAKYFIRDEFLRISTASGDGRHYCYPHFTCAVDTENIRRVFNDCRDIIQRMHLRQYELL
UniProt Q86YR5: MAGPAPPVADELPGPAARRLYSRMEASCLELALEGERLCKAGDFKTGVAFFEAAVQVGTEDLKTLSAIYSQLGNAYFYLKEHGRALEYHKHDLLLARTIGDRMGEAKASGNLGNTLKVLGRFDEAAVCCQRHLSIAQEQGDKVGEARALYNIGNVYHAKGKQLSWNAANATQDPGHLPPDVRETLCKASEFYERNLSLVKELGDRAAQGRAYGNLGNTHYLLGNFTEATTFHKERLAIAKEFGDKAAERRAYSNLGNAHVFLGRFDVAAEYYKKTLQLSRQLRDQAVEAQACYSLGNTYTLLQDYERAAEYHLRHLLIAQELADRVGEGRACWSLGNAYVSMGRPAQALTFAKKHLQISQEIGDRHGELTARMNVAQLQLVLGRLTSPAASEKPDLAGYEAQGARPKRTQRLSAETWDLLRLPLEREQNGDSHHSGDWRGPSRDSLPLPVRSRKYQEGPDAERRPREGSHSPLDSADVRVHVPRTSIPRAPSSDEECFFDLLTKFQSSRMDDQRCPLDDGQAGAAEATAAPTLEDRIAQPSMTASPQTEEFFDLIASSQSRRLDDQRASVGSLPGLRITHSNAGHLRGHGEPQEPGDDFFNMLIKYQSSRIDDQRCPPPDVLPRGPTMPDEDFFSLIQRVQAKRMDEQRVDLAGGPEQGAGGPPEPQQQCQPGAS
UniProt Q9HAV0, whole entry, looked up: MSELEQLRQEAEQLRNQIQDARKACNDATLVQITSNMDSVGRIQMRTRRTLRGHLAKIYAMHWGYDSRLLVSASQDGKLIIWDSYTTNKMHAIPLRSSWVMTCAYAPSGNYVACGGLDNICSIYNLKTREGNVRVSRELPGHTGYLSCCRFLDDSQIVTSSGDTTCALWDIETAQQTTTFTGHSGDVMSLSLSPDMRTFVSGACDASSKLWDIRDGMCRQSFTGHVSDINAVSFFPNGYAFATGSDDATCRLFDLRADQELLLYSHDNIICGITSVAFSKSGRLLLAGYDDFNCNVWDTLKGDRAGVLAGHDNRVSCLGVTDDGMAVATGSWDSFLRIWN

Legend:
Test in all cases: log2 fold change, soluble protein after heating vs DMSO (PISA); higher = thermal stabilisation; K562 lysate, 10 uM; active = over 0.2 and 3.5 SD of the protein, either way, in both replicates (recomputed)
[1] = compound: C1=CC=C(C=C1)[C@H](COC2=CC3=C(C=C2)NC(=O)N3)NC(=O)C4=CC=CN(C4=O)CC5=CC(=C(C=C5)F)F
How it was run: (§1)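 Soluble protein was defined as the supernatant remaining after 21,000xg for 90 min, following pooling of heated aliquots and adjustment to 0.5% NP-40 at 4°C. Before that, crude K562 extract at 1 mg/mL protein in PBS pH 7.4 with 1 mM MgCl2 was treated with 10 μM compound for 30 min and heated for 3 min across 48°C-58°C. Quantification used TMTpro 16plex LC-MS/MS with channel sums equalised, and values are log-two fold changes in thermal stability relative to solvent controls from duplicates.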

[2] = compound: CC1=C(SC2=C1C(=N[C@H](C3=NN=C(N32)C)CC(=O)N)C4=CC=C(C=C4)Cl)C
How it was run: as §1

[3] = compound: Cc1sc2c(c1C)C(c1ccc(Cl)cc1)=N[C@@H](CC(=O)OC(C)(C)C)c1nnc(C)n1-2
How it was run: as §1

[4] = compound: CC1=C2C(=CC=C1)N=C(N(C2=O)C3=CC=CC=C3C)CN4C=NC5=C(N=CN=C54)N
How it was run: as §1

[5] = compound: c1ccc([C@@H]2C[C@H]2NC2CCNCC2)cc1
How it was run: as §1

Measured: log2 fold change

GOLGA8R (UniProt I6L899)
inactive: [1] 0.111 | [2] 0.095 | [3] -0.107

GGA3 (UniProt Q9NZ52)
inactive: [1] -0.016 | [2] -0.016 | [4] -0.004 | [3] 0.009 | [5] -0.036

GLUD1 (UniProt P00367)
inactive: [1] 0.004 | [2] 0.039 | [4] 0.029 | [3] -0.029 | [5] 0.002

GPN2 (UniProt Q9H9Y4)
inactive: [4] 0.07 | [3] 0.057 | [5] -0.034

GNAS isoform 3 (UniProt P63092)
inactive: [5] 0.011

GPSM1 (UniProt Q86YR5)
inactive: [4] -0.155

GNB4 (UniProt Q9HAV0)
inactive: [1] 0.162 | [2] -0.074 | [3] 0.031 | [5] -0.05

GOSR1 (UniProt E9PCW1)
inactive: [1] -0.278 | [2] 0.153 | [3] -0.087 | [5] 0.164
